Source: paper PMC7799768
Results are given in words; binding and its absence hold for the method and conditions named. Binding seen in cells or lysates may run through a third protein. Some entries that bind do so weakly or less than the wild type.

By UniProt entry, the sequences of proteins in these tests, tags left out.
UniProt Q13158: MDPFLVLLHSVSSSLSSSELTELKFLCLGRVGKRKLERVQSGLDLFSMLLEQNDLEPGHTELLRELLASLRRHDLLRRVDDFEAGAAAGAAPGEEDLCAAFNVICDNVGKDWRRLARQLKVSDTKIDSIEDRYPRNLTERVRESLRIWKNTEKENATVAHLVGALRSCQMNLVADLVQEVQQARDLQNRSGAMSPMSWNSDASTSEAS
UniProt Q99497: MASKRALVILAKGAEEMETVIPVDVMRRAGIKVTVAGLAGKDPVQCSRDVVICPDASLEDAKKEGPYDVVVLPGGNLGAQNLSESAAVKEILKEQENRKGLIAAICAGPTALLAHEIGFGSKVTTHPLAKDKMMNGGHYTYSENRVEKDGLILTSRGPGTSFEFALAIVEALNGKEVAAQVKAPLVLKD

Biological target: FADD (Fas-Associated protein with death domain) (human (endogenous in platelets)) (UniProt Q13158)
Test: co-IP; antibody (4 ug) on magnetic Dynabeads Protein A/G incubated with platelet concentrate lysate (500 ug protein) in PBS for 2 h at RT; eluted and analysed by Western blot; IgG controls and input

DJ-1 (Deglycase 1) (from UniProt Q99497 1-189)
binding: binds
